The experiment deals with sSema4D protein (Mus musculus (Mouse)). The experiment can be described thus: CD spectroscopy of 20 uM nanoparticles before and after addition of sSema4D.

These are yes or no findings as the source states them, for the method shown. Binding can be weak; no strength is given.

For FFVLKKQKRPRH (X = C16 carbon chain (X being C16), as for FG; position shown only in a drawing) [nano small peptide FH], the binding entry is “binds”.
